No constants are given. Whether binding was seen depends on the method and setting. Some entries that bind do so weakly or less than the wild type. Sequences can lack the tags named with a protein.
B1: S. aureus PBP1 (bacterial two-hybrid fusion) (protein, UniProt Q2FZ94 1-744)
chain: MAKQKIKIKKNKIGAVLLVGLFGLLFFILVLRISYIMITGHSNGQDLVMKANEKYLVKNAQQPERGKIYDRNGKVLAEDVERYKLVAVIDKKASANSKKPRHVVDKKETAKKLSTVINMKPEEIEKRLSQKKAFQIEFGRKGTNLTYQDKLKIEKMNLPGISLLPETERFYPNGNFASHLIGRAQKNPDTGELKGALGVEKIFDSYLSGSKGSLRYIHDIWGYIAPNTKKEKQPKRGDDVHLTIDSNIQVFVEEALDGMVERYQPKDLFAVVMDAKTGEILAYSQRPTFNPETGKDFGKKWANDLYQNTYEPGSTFKSYGLAAAIQEGAFDPDKKYKSGHRDIMGSRISDWNRVGWGEIPMSLGFTYSSNTLMMHLQDLVGADKMKSWYERFGFGKSTKGMFDGEAPGQIGWSNELQQKTSSFGQSTTVTPVQMLQAQSAFFNDGNMLKPWFVNSVENPVSKRQFYKGQKQIAGKPITKDTAEKVEKQLDLVVNSKKSHAANYRIDGYEVEGKTGTAQVAAPNGGGYVKGPNPYFVSFMGDAPKKNPKVIVYAGMSLAQKNDQEAYELGVSKAFKPIMENTLKYLNVGKSKDDTSNAEYSKVPDVEGQDKQKAIDNVSAKSLEPVTIGSGTQIKAQSIKAGNKVLPHSKVLLLTDGDLTMPDMSGWTKEDVIAFENLTNIKVNLKGSGFVSHQSISKGQKLTEKDKIDVEFSSENVDSNSTNNSDSNSDDKKKSDSKTDKDKSD

Protein sequences, listed by entry. Tags and fused reporters are not part of them. Lines headed by an entry give the natural chain unless they say otherwise; changes in a name come on top.
UniProt Q2FXK8, whole entry: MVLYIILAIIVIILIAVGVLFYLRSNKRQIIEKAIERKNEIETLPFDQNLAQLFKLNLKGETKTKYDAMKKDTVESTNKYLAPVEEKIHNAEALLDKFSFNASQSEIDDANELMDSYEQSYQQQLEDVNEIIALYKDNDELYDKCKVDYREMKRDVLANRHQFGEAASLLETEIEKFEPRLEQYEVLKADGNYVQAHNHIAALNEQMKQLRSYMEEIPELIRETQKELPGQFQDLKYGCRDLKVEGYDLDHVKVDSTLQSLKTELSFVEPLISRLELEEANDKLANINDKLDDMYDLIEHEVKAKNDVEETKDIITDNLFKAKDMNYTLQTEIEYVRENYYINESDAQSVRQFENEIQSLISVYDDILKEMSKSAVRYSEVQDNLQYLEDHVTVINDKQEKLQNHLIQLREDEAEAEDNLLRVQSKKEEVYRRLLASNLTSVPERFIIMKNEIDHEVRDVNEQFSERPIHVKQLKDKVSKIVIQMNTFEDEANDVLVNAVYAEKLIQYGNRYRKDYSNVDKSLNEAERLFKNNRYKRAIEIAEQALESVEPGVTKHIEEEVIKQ

Experiments:
DivIB (S. aureus) = DivIB (S. aureus) (UniProt Q2FZ91); experiment: two-hybrid
EzrA (S. aureus) = EzrA (S. aureus) (UniProt Q2FXK8); experiment: two-hybrid

Row | Molecule | binding (DivIB (S. aureus)) | binding (EzrA (S. aureus))
1 | T25-PBP1ΔPASTA (S. aureus PBP1 without the PASTA domains, M1-S595) (from UniProt Q2FZ94 1-595) (domain or fragment) | binds | binds
2 | B1 | binds | binds

Reference: doi:10.1101/2021.10.07.463504
